PubChem BioAssay AID1224830, NIAID | 2016
Here is a random part of about 18,000 deposited reagents. About 2,900 of them (16%) count as active. 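Calls are made per well; low scores hint the gene aids the LPS response, high scores that it dampens it.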 Unmarked entries are inactive. Repeated entries: four replicate wells of each siRNA pool.

Purpose: 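Regulators of TLR4 signalling towards TNF-alpha in macrophage-like cells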 (primary screen)
Cells: human THP-1 monocytic leukaemia cells, TNF dual-luciferase reporter clone, PMA-differentiated to macrophage-like cells
Reagents: siRNA pool against human genes, 50 nM
Timing: LPS for 4 h, given about 3 days after siRNA transfection
Conditions: bacterial LPS (TLR4 ligand), 10 ng/ml
Measurement: 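TNF firefly reporter luminescence divided by renilla, normalised to the plate median, then turned into a robust z-score for each replicate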
Reading the numbers: TNF reporter robust z-score: higher = stronger TNF reporter response to LPS
Rule for the call: 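a well is active when its z-score exceeds 2.8 or falls below -1.5; control wells carry no call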

gene	TNF reporter robust z-score
EXOSC6	1.16
EXOSC6	-0.3
EXOSC6	-0.23
EXOSC6	0.25
DNA2	-1.53 (active)
DNA2	-0.91
DNA2	-1.12
DNA2	-0.35
PCBP4	1.16
PCBP4	-0.45
PCBP4	1.39
PCBP4	1.12
WDR88	3.76 (active)
WDR88	1.9
WDR88	0.66
WDR88	-0.49
ARSG	0.7
ARSG	2.26
ARSG	0.83
ARSG	1.36
PFKFB3	-0.07
PFKFB3	0.06
PFKFB3	-0.96
PFKFB3	0.23
NLN	-0.05
NLN	-1.11
NLN	-0.42
NLN	-2.14 (active)
IFT52	-0.43
IFT52	0.27
IFT52	0.04
CD79A	1.18
CD79A	1.28
CD79A	1.51
CD79A	0.42
LOC90462 (retired record)	-0.58
LOC90462 (retired record)	-0.51
LOC90462 (retired record)	-0.44
LOC90462 (retired record)	-0.23
RP2	-0.2
RP2	0.62
RP2	0.74
RP2	0.52
ZNHIT3	-2.19 (active)
ZNHIT3	-1.95 (active)
ZNHIT3	-1.78 (active)
NMD3	-0.23
NMD3	-0.27
NMD3	0.21
NMD3	1.69
NCAM1	-1.68 (active)
NCAM1	-1.14
NCAM1	-1.54 (active)
NCAM1	-1.3
CYP1B1	0.6
CYP1B1	0.02
CYP1B1	1.38
CYP1B1	2.97 (active)
GOLM1	0.47
GOLM1	-0.29
GOLM1	0.3
GOLM1	0.92
TBCD	0.58
TBCD	0.33
TBCD	0.42
TBCD	0.32
ANKRD12	-0.94
ANKRD12	-0.34
ANKRD12	0.88
ANKRD12	-0.84
CPT2	-0.65
CPT2	-0.04
CPT2	0.3
CPT2	-0.97
KCNE1	-0.76
KCNE1	-0.75
KCNE1	-0.36
KCNE1	-0.48
TMPRSS12	1.95
TMPRSS12	1.78
TMPRSS12	2.17
TMPRSS12	2.66
SF3B5	-0.19
SF3B5	0.07
SF3B5	-0.17
SF3B5	-0.57
SLC6A17	2.79
SLC6A17	-0.4
SLC6A17	-0.02
SLC6A17	-0.12
EBF1	-0.37
EBF1	2.47
EBF1	1.4
EBF1	2.37
PCDHGB1	5.24 (active)
PCDHGB1	2.66
PCDHGB1	2.96 (active)
PCDHGB1	1.9
SELENOO	0.04
SELENOO	-0.33
SELENOO	-0.81
SELENOO	-0.38
OSTC	0.85
OSTC	0.79
OSTC	1.69
OSTC	0.39
NAV2	-0.97
NAV2	-0.33
NAV2	-1.51 (active)
NAV2	-0.07
